Structures can show the parent of a compound that is named as a salt. The list shows a part of the results. Hit calls seldom repeat between salt and free forms of one compound.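 In K562 cells expressing nanoluciferase-fused kinases, luminescence was recorded at 4 h intervals between 2 and 18 h, normalized as percent of control with DMSO at 100% and a positive control at 0%. A significant (2 sigma) signal drop marks a time point as decreased. The authors' rule for a hit is not shown and takes in more than the number of time points.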
Molecular target: AURKA (UniProt O14965)
Test: kinase-Nluc reporter destabilization hit call (1 = scored as downregulated) (binary); higher = compound decreases kinase abundance
Conditions: K562; 2-18 h

Protein sequences, listed by entry. Tags and fused reporters are not part of them. Lines headed by an entry give the natural chain unless they say otherwise; changes in a name come on top.
UniProt O14965: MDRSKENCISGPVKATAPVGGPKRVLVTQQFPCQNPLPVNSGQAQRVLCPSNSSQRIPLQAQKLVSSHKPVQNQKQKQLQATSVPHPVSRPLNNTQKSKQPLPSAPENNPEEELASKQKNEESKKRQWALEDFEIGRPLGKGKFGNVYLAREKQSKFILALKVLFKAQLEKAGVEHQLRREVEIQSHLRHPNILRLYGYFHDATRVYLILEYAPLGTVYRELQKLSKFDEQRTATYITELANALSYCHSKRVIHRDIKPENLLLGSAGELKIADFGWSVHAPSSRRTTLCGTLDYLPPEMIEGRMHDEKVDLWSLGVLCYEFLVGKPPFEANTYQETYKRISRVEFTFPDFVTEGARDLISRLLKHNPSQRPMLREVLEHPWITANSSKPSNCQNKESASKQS

kinase-Nluc reporter destabilization hit call, inactive:
O=S(=O)(c1cccc2cnccc12)N1CCNCC1 (10 µM) 0
COc1cc(C(C)=O)cc(OC)c1O [Acetosyringone] (10 µM) 0
CCOc1c([C@H](C)n2nc(C)c3c(N)ncnc32)cc(Cl)c(F)c1[C@@H]1CNC(=O)C1 [Parsaclisib (hydrochloride)] (10 µM) 0
CC[C@H](C)[C@H](NC(=O)[C@H](CCC(=O)O)NC(=O)[C@H](CCCN=C(N)N)NC(=O)[C@H](CCCN=C(N)N)NC(=O)[C@@H](N)CCCCN)C(=O)N[C@@H](CC(C)C)C(=O)N[C@@H](CO)C(=O)N[C@@H](CCCN=C(N)N)C(=O)N[C@@H](CCCN=C(N)N)C(=O)N1CCC[C@H]1C(=O)N[C@@H](CO)C(=O)N[C@@H](Cc1ccc(O)cc1)C(=O)N[C@@H](CCCN=C(N)N)C(=O)O [CREBtide] (10 µM) 0
O=C(O)CCc1ccc(NCc2cccc(Oc3ccccc3)c2)cc1 (10 µM) 0
O[C@H]1CC[C@H](Nc2ncc3nc(Nc4c(F)cc(F)cc4F)n([C@H]4CCOC4)c3n2)CC1 [Tanzisertib] (10 µM) 0
Oc1ccccc1C(=S)N1CCCC1 (10 µM) 0
CC[C@@H]1C(=O)N(C)c2cnc(Nc3ccc(C(=O)N[C@H]4CC[C@H](N5CCN(CC6CC6)CC5)CC4)cc3OC)nc2N1C(C)C [Volasertib] (2.5 µM) 0
C[C@@H]1O[C@@H](OC[C@H]2O[C@@H](Oc3cc(O)c4c(c3)O[C@H](c3ccc(O)cc3)CC4=O)[C@H](O)[C@@H](O)[C@@H]2O)[C@H](O)[C@H](O)[C@H]1O [Narirutin] (10 µM) 0
CCc1ccc(C(=O)COc2ccc(CC3SC(=O)NC3=O)cc2)nc1 (stereo not given) (10 µM) 0
Cc1ccc(-c2ccc3c(ccc4sc5c(c43)NC[C@@H](C)NC5=O)n2)cn1 (10 µM) 0
CC[C@H](Nc1ncnc2[nH]cnc12)c1oc2ccccc2c(=O)c1-c1cccc(F)c1 [Tenalisib] (10 µM) 0
CCCC(=O)Nc1nc2c(ncn2[C@@H]2O[C@@H]3COP(=O)(O)O[C@H]3[C@H]2OC(=O)CCC)c(=O)[nH]1 [Dibutyryl-cGMP (sodium)] (10 µM) 0
CC(C)c1cnn2c(NCc3ccccc3-n3cccn3)nc(OC3CCCNC3)nc12 (stereo not given) (2.5 µM) 0
OCCN(CCO)c1ccc(C(c2ccc(Cl)cc2)c2ccc(N(CCO)CCO)cc2)cc1 (10 µM) 0
CCCCNC(=N)NC(=N)N [Buformin (hydrochloride)] (2.5 µM) 0
Fc1c(Br)cccc1Nc1ncnc2cc3c(cc12)OCCO3 (2.5 µM) 0
Cc1cc(Nc2nc(N[C@@H](C)c3ncc(F)cn3)ncc2Cl)[nH]n1 (10 µM) 0
Cc1cc(Nc2cc(CN3CCOCC3)c3nc(C)c(Cc4ccc(Cl)cc4F)n3n2)n[nH]1 [Gandotinib] (2.5 µM) 0
COc1cc(N2CCC(N(C)C)CC2)ccc1Nc1ncc(Cl)c(Nc2ccccc2P(C)(C)=O)n1 (2.5 µM) 0
Nc1[nH]c(=O)nc2c1ncn2[C@@H]1O[C@H](CO)[C@@H](O)[C@H]1O [Crotonoside] (10 µM) 0
Cn1cc(-c2ccc(F)c(C(F)(F)F)c2)nc1C1CCN(c2ncnc3[nH]ncc23)CC1 (10 µM) 0
CCOc1ccccc1C=C1C(=O)Nc2ccccc21 (10 µM) 0
CC(C)(C)C(=O)N1N=CC[C@H]1c1ccccc1 (10 µM) 0
COc1ccc(CCNc2ncc3c(=O)n(-c4cccc(F)c4)c(=O)[nH]c3n2)cc1OC (2 µM) 0
Cc1ccc(-c2nn(C(C)(C)CNC(=O)c3ccncc3)c3ncnc(N)c23)cc1 (2.5 µM) 0
CNC(=O)c1ccc(-c2cnc3cnc(-c4ccccc4)cn23)cc1 (10 µM) 0
CCn1nc(C2CCN(C(=O)CCO)CC2)nc1-c1cnc(N)c(-c2nnc(C(C)(C)C)o2)n1 (10 µM) 0
CCCCCCCC/C=C\CCCCCCCC(=O)NCC(=O)O [N-Oleoyl glycine] (10 µM) 0
CC1(COc2ccc3c(c2)ncn3-c2ccc3cccc(N4CCC(N)CC4)c3n2)COC1 [Crenolanib] (2.5 µM) 0

2 records drawn at random from the list so far:
kinase-Nluc reporter destabilization hit call, inactive:
CC[C@H](Nc1ncnc2[nH]cnc12)c1oc2ccccc2c(=O)c1-c1cccc(F)c1 [Tenalisib] (10 µM) 0
CCOc1ccccc1C=C1C(=O)Nc2ccccc21 (10 µM) 0

Reference: the supplement of paper PMC12823440, “Inhibitors supercharge kinase turnover through native proteolytic circuits” (Nature, 2025)
